# Data as given in PubChem BioAssay AID504804 (Drosophila RNAi Screening Center, 2011)
# Aim: 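Fly genes whose loss lessens doxorubicin-driven cell death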 (primary screen)
# System: Drosophila Kc cells
# Reagents: long dsRNA against Drosophila genes, 0.5 µg dsRNA per well
# Duration: 96 h (48 h knock-down, then 48 h drug)
# Conditions: doxorubicin 5 µg/ml for 48 h, added 48 h after dsRNA
# Measured: 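Luminescent ATP counts per replicate, not normalised, reflecting viable cells after 48 h dsRNA knock-down followed by 48 h of 5 µg/ml doxorubicin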
# Reading the numbers: raw ATP luminescence: higher = more viable cells, protection from doxorubicin
# Rule for the call: 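Active when both duplicate wells lie at least 2 SD above the plate mean and protection is confirmed by rescreening and independent dsRNAs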
# The screen tested about 19,000 reagents; this is a random part of those that have a named target and a result. In the full data, 47 (0.25%) were called active. 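Signals are raw, not normalised; exact z-scores behind calls not deposited; actives needed confirmation, so some wells reaching 2 SD are inactive.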 A plus sign joins genes that one reagent is predicted to hit.
Gene,DRSC id,"raw ATP luminescence, replicate 1","raw ATP luminescence, replicate 2",Call
Atg10 + CG12822,DRSC06796,20877,1.01e5,inactive
yuri,DRSC01453,2.81e5,2.77e5,inactive
yuri,DRSC01454,2.52e5,2.10e5,inactive
yuri,DRSC01943,64977,72820,inactive
yuri,DRSC01972,1.02e5,65527,inactive
Blos4,DRSC10151,79810,71833,inactive
Cp19,DRSC11121,88313,82067,inactive
Agpat1,DRSC19879,3.29e5,3.20e5,inactive
Agpat1,DRSC19880,3.20e5,3.22e5,inactive
CG9663,DRSC00724,1.04e5,79483,inactive
RpL27A,DRSC00781,16283,13757,inactive
Uba4,DRSC02194,32713,70217,inactive
CG12902,DRSC06217,61997,71747,inactive
CG5608,DRSC15841,88980,15723,inactive
Obsc,DRSC04301,1.96e5,2.15e5,inactive
Obsc,DRSC04302,75577,65567,inactive
Obsc,DRSC04303,57947,85423,inactive
Obsc,DRSC04430,63293,59117,inactive
Tre1,DRSC18726,37110,52920,inactive
CG34167,DRSC01525,2.89e5,2.67e5,inactive
Cby,DRSC14591,73000,76750,inactive
Uhg2 + snoRNA:Me18S-G1620 + snoRNA:U14:30Ea,DRSC01100,2.48e5,2.15e5,inactive
Ugt304A1,DRSC15127,46467,44237,inactive
CG6729,DRSC02984,91107,67517,inactive
CG15472,DRSC18055,35300,45700,inactive
Oseg5,DRSC03209,63460,50923,inactive
bsh,DRSC03498,1.65e5,2.19e5,inactive
CG13794,DRSC02298,58083,72357,inactive
CG2767,DRSC15451,68040,28203,inactive
Ccp84Af,DRSC12591,47880,68370,inactive
Tbc1d15-17,DRSC00313,1.21e5,63860,inactive
Jon66Cii,DRSC10778,72900,81987,inactive
Sas-4,DRSC12505,76597,69037,inactive
Fa2h,DRSC06608,49223,68000,inactive
Fa2h,DRSC06609,50383,66607,inactive
mle,DRSC04921,50670,44570,inactive
Ca-beta,DRSC02406,32830,67437,inactive
Ca-beta,DRSC02407,42457,72437,inactive
Ca-beta,DRSC03285,36523,79560,inactive
CG33490,DRSC10587,39873,39207,inactive
CG2269,DRSC06833,78443,61793,inactive
Scsalpha2,DRSC16003,38607,39477,inactive
TM9SF2,DRSC03197,76480,85237,inactive
CG7530,DRSC16255,80923,44830,inactive
Obp58b,DRSC04161,48610,51417,inactive
Sgt,DRSC02812,80543,60637,inactive
CG4066,DRSC15541,56197,46470,inactive
Pex16,DRSC11750,37210,33363,inactive
CG31781 (retired record),DRSC02431,1.02e5,65000,inactive
CG31781 (retired record),DRSC02432,78093,1.05e5,inactive
E(Pc),DRSC05281,53103,60067,inactive
oc,DRSC18808,41400,44550,inactive
sol,DRSC20587,2.80e5,2.90e5,inactive
CG4835,DRSC10452,71310,80987,inactive
Atg4b,DRSC15988,32350,36713,inactive
ND-B22,DRSC03193,59443,65410,inactive
Srrm234,DRSC07955,1.33e5,1.59e5,inactive
Srrm234,DRSC08606,64863,67517,inactive

Already shown: 9 of the entries above.
Gene,DRSC id,"raw ATP luminescence, replicate 1","raw ATP luminescence, replicate 2",Call
CG33490,DRSC10587,39873,39207,inactive
CG2269,DRSC06833,78443,61793,inactive
Scsalpha2,DRSC16003,38607,39477,inactive
TM9SF2,DRSC03197,76480,85237,inactive
CG7530,DRSC16255,80923,44830,inactive
Obp58b,DRSC04161,48610,51417,inactive
Sgt,DRSC02812,80543,60637,inactive
CG4066,DRSC15541,56197,46470,inactive
Pex16,DRSC11750,37210,33363,inactive
